In patent publication US7368424B2 (AiCuris GmbH & Co. KG, priority 2003, dated 2008):

Assay: peptide synthesis
Conditions: trifluoroacetate

For “3-Amino-N-[(benzyloxy)carbonyl]-L-alanyl-N^1-{(3S,6S,12S,15S,18R,21S,24S,27S,28R)-6-[(1S)-2-amino-1-hydroxy-2-oxoethyl]-18-(3-{[amino(imino)methyl]amino}propyl)-12-[(1S)-1-hydroxyethyl]-3-(hydroxymethyl)-24-[(1R)-1-hydroxy-2-methylpropyl]-21-isobutyl-15-[(1S)-1-methylpropyl]-2,5,8,11,14,17,20,23,26-nonaoxo-28-phenyl-1-oxa-4,7,10,13,16,19,22,25-octaazacyclooctacosan-27-yl}-L-leucinamide bistrifluoroacetate”, the step yield (late stage modification step) was 65% of theory.
With “3-tert-Butyl-D-alanyl-3-(3-pyridyl)-L-alanyl-de(1-D-leucyl-2-L-leucyl)lysobactin tristrifluoroacetate” the step yield (late stage modification step) was 59% of theory.
With “3-tert-Butyl-D-alanyl-N^1-{(3S,6S,12S,15S,18R,21S,24S,27S,28R)-6-[(1S)-2-amino-1-hydroxy-2oxoethyl]-18-(3-{[amino(imino)methyl]amino}propyl)-12-[(1S)-1-hydroxyethyl]-3-(hydroxymethyl)-24-[(1R)-1-hydroxy-2-methylpropyl]-21-isobutyl-15-[(1S)-1-methylpropyl]-2,5,8,11,14,17,20,23,26-nonaoxo-28-phenyl-1-oxa-4,7,10,13,16,19,22,25-octaazacyclooctacosan-27-yl}-3-tert-butyl-L-alaninamide bistrifluoroacetate” the step yield (late stage modification step) was 73% of theory.
With “De(1-D-leucyl-2-L-leucyl)lysobactin bistrifluoroacetate” the step yield (late stage modification step, run 1) was 75% of theory and the step yield (late stage modification step, run 2) was 32% of theory.
For “L-Leucyl-N^1-{(3S,6S,12S,15S,18R,21S,24S,27S,28R)-6-[(1S)-2-amino-1-hydroxy-2-oxoethyl]-18-(3-{[amino(imino)methyl]amino}propyl)-12-[(1S)-1-hydroxyethyl]-3-(hydroxymethyl)-24-[( 1R)-1-hydroxy-2-methylpropyl]-21-isobutyl-15-[(1S)-1-methylpropyl]-2,5,8,11,14,17,20,23,26-nonaoxo-28-phenyl-1-oxa-4,7,10,13,16,19,22,25-octaazacyclooctacosan-27-yl}-L-leucinamide bistrifluoroacetate”, the step yield (late stage modification step) was 42% of theory.
With “N-(tert-Butoxycarbonyl)-N-methyl-lysobactin monotrifluoroacetate” the step yield (coupling step) was 40% of theory.
With “N-({1-[(tert-Butoxycarbonyl)amino]cyclopropyl}carbonyl)-de(leucyl)lysobactin monotrifluoroacetate” the step yield (coupling step) was 13% of theory.
With “N-Boc-3-tert-butyl-D-alanyl-3-(3-pyridyl)-L-alanyl-de(1-D-leucyl-2-L-leucyl)lysobactin” the step yield (coupling step) was 80% of theory.
In the case of “N-tert-Butoxycarbonyl-3-tert-butyl-D-alanyl-3-tert-butyl-L-alanyl-de(1-D-leucyl-2-L-leucyl)-lysobactin trifluoroacetate”, the step yield (coupling step) is reported as 95% of theory.
In the case of “N-{3-[(tert-Butoxycarbonyl)amino]propionyl}-de(leucyl)lysobactin monotrifluoroacetate”, the step yield (coupling step) is reported as 40% of theory.
For “N-{6-[(tert-Butoxycarbonyl)amino]hexanoyl}-de(leucyl)lysobactin monotrifluoroacetate”, the step yield (coupling step) was 18% of theory.
With “N^2-(3-Aminopropionyl)-N^1-{(3S,6S,12S,15S,18R,21S,24S,27S,28R)-6-[(1S)-2-amino-1-hydroxy-2-oxoethyl]-18-(3-{[amino(imino)methyl]amino}propyl)-12-[(1S)-1-hydroxyethyl]-3-(hydroxymethyl)-24-[(1R)-1-hydroxy-2-methylpropyl]-21-isobutyl-15-[(1S)-1-methylpropyl]-2,5,8,11,14,17,20,23,26-nonaoxo-28-phenyl-1-oxa-4,7,10,13,16,19,22,25-octaazacyclooctacosan-27-yl}-L-leucinamide bistrifluoroacetate” the step yield (late stage modification step) was 11% of theory.
In the case of “N^2-(4-Aminobutanoyl)-N^1-{(3S,6S,12S,15S,18R,21S,24S,27S,28R)-6-[(1S)-2-amino-1-hydroxy-2-oxoethyl]-18-(3-{[amino(imino)methyl]amino}propyl)-12-[(1S)-1-hydroxyethyl]-3-(hydroxymethyl)-24-[(1R)-1-hydroxy-2-methylpropyl]-21-isobutyl-15-[(1S)-1-methylpropyl]-2,5,8,11,14,17,20,23,26-nonaoxo-28-phenyl-1-oxa-4,7,10,13,16,19,22,25-octaazacyclooctacosan-27-yl}-L-leucinamide bistrifluoroacetate”, the step yield (late stage modification step) is reported as 35% of theory.
In the case of “N^2-({1-Aminocyclopropyl}carbonyl)-N^1-{(3S,6S,12S,15S,18R,21S,24S,27S,28R)-6-[(1S)-2-amino-1-hydroxy-2-oxoethyl]-18-(3-{[amino(imino)methyl]amino}propyl)-12-[(1S)-1-hydroxyethyl]-3-(hydroxymethyl)-24-[(1R)-1-hydroxy-2-methylpropyl]-21-isobutyl-15-[(1S)-1-methylpropyl]-2,5,8,11,14,17,20,23,26-nonaoxo-28-phenyl-1-oxa-4,7,10,13,16,19,22,25-octaazacyclooctacosan-27-yl}-L-leucinamide bistrifluoroacetate”, the step yield (late stage modification step) is reported as 50% of theory.
For “{4-[(tert-Butoxycarbonyl)amino]butanoyl}-de(leucyl)lysobactin monotrifluoroacetate”, the step yield (coupling step) was 59% of theory.
